# Where “and” joins values, the source holds several entries; their conditions need not be identical. Identical values can stand only once.
# Columns and labels:
# cathepsins B, S, and H = experiment: Proteolytic mapping (ProtMap) of native and citrullinated autoantigens by cathepsins B, S, and H with LFQ-MS; type: biochemical, human; settings: for # changed residues: cathepsins BSH, pH 5.0, 4 h, 37 °C; for # changed peptides Cr (created) / # changed peptides De (destroyed): q <= 0.05 and >= twofold; for PAD2 change score (antigen processing change score): percentage of all ProtMap peptides significantly changed between native and PAD2-citrullinated samples; for PAD4 change score (antigen processing change score): percentage of all ProtMap peptides significantly changed between native and PAD4-citrullinated samples; for Change Score - PAD2 / Change Score - PAD4: Fig. 3e; for Change Score - PAD2: native vs PAD2-citrullinated protein; for Change Score - PAD4: native vs PAD4-citrullinated protein
# Protocol: Prior to proteolytic mapping, citrullinated antigens were generated by incubating recombinant human antigens—hnRNP A2/B1 (RA33; custom-made as previously described by in ref. [24]), fibrinogen (Cayman Chemical), and vimentin (PeproTech)—with Sf9-purified peptidylarginine deiminase 2 or 4 (PAD2 or PAD4; Inova) at a 17:1 mass ratio in citrullination buffer (100 mM Tris, 1 mM DTT, 5 mM CaCl2, pH 7.5) for 4 h at 37 °C. Native antigens were diluted in the same buffer without PAD enzymes and without incubation at 37 °C to prevent degradation. Citrullination was confirmed by anti-peptidylcitrulline (clone F95, EMD Millipore) immunoblotting. Native and citrullinated antigen pools were split into four 15 µg replicates per condition before digestion (except hnRNP A2/B1, which was digested in double-volume replicates of three and later split into two each, total n = 6, prior to MS) by cathepsins B, S, and H (Millipore Sigma). Digestions were incubated in digestion buffer (citrate phosphate buffer, 4 mM DTT, 1 mM EDTA, pH 5.0) for 4 h at 37 °C. Fibrinogen and vimentin were digested at a 60:1 antigen:cathepsin mass ratio per cathepsin, and hnRNP A2/B1 was digested at a 150:1 antigen:cathepsin mass ratio per cathepsin to achieve full digestion of the protein. Digestion was confirmed by Coomassie Blue staining, and the remaining samples were centrifuged through a 10-kDa-spin filter (Microcon, Millipore) to remove undigested protein fragments. The resulting peptide repertoires were then analyzed by LFQ–MS.
# Prior to MS, the samples were reduced and alkylated by incubating in 10 mM Tris (2-Carboxyethyl) phosphine hydrochloride (TCEP, v/v) and 50 mM chloroacetamide (CAA, v/v) for 1 h at room temperature. The samples were then desalted using C18 StageTips (3 M Empore) after acidifying with 1% trifluoroacetic acid (TFA). The peptide solution was vacuum-dried and stored at ‒80 °C. The peptide samples were analyzed on an Orbitrap Fusion Lumos Tribrid mass spectrometer interfaced with an Ultimate 3000 RS Autosampler nanoflow liquid chromatography system (Thermo Scientific). The dried peptides were reconstituted in 15 µL of 0.5% formic acid (FA) and then loaded onto a trap column (Acclaim™ PepMap™ 100 LC C18, 5 μm, 100 μm × 2 cm, Thermo Scientific) at a flow rate of 8 μL/min. Peptides were separated on an analytical column (Easy-Spray™ PepMap™ RSLC C18, 2 μm, 75 μm × 50 cm, Thermo Scientific) at a flow rate of 0.3 μL/min using a linear gradient with mobile phases consisting of 0.1% FA in water and in 95% acetonitrile (ACN) for 120 min. The mass spectrometer was operated in data-dependent acquisition (DDA) mode. The MS1 (precursor ions) scan range for a full survey scan was acquired from 300 to 1800 m/z in the top speed setting with a resolution of 120,000 at an m/z of 200. The AGC target for MS1 was set as 1 × 10^6, and the maximum injection time was 100 milliseconds. The most intense ions with charge states of 2–5 were isolated in a 3-s cycle, fragmented using higher-energy collisional dissociation (HCD) fragmentation with 32% normalized collision energy, and detected at a mass resolution of 50,000 at an m/z of 200. The AGC target for MS/MS (fragments) was set as 5 × 10^4, and the ion filling time was 100 milliseconds. The precursor isolation window was set to 1.6 m/z with a 0.4 m/z offset. The dynamic exclusion was set to 30 s, and singly charged ions were rejected. Internal calibration was carried out using the lock mass option (m/z 445.1200025) from ambient air[59]–[61].
# Proteome Discoverer (version 2.4.1.15, Thermo Scientific) was used for the identification and quantitation of proteins. During MS/MS preprocessing, the top 10 peaks in each window of 100 m/z were selected for database search. […]
# recombinant human PAD2 = experiment: Citrullination site mapping by mass spectrometry after PAD2 citrullination; type: biochemical; settings: PAD2 condition; for citrullination (%): share of sequence citrullinated
# recombinant human PAD4 = experiment: Citrullination site mapping by mass spectrometry after PAD4 citrullination; type: biochemical; settings: PAD4 condition; for citrullination (%): share of sequence citrullinated
Molecule,"changed peptides (%) Cr (created) (cathepsins B, S, and H; PAD2-citrullinated vs native) [%]","changed peptides (%) De (destroyed) (cathepsins B, S, and H; PAD2-citrullinated vs native) [%]","changed residues (%) (cathepsins B, S, and H; PAD2-citrullinated vs native)","# changed residues (cathepsins B, S, and H; PAD2-citrullinated vs native)","# changed peptides Cr (created) (cathepsins B, S, and H; PAD2-citrullinated vs native)","# changed peptides De (destroyed) (cathepsins B, S, and H; PAD2-citrullinated vs native)","changed peptides (%) Cr (created) (cathepsins B, S, and H; PAD4-citrullinated vs native) [%]","changed peptides (%) De (destroyed) (cathepsins B, S, and H; PAD4-citrullinated vs native) [%]","changed residues (%) (cathepsins B, S, and H; PAD4-citrullinated vs native)","# changed residues (cathepsins B, S, and H; PAD4-citrullinated vs native)","# changed peptides Cr (created) (cathepsins B, S, and H; PAD4-citrullinated vs native)","# changed peptides De (destroyed) (cathepsins B, S, and H; PAD4-citrullinated vs native)","PAD2 change score (antigen processing change score) (cathepsins B, S, and H)","PAD4 change score (antigen processing change score) (cathepsins B, S, and H)",# citrulline residues (recombinant human PAD2),citrullination (%) (recombinant human PAD2),# citrulline residues (recombinant human PAD4),citrullination (%) (recombinant human PAD4),"Change Score - PAD2 (cathepsins B, S, and H)","Change Score - PAD4 (cathepsins B, S, and H)",also measured
"Fibrinogen a: α chain of human fibrinogen (Cayman Chemical), RA autoantigen; native or citrullinated by PAD2 or PAD4 (protein) MFSMRIVCLVLSVVGTAWTADSGEGDFLAEGGGVRGPRVVERHQSACKDSDWPFCSDEDWNYKCPSGCRMKGLIDEVNQDFTNRINKLKNSLFEYQKNNKDSHSLTTNIMEILRGDFSSANNRDNTYNRVSEDLRSRIEVLKRKVIEKVQHIQLLQKNVRAQLVDMKRLEVDIDIKIRSCRGSCSRALAREVDLKDYEDQQKQLEQVIAKDLLPSRDRQHLPLIKMKPVPDLVPGNFKSQLQKVPPEWKALTDMPQMRMELERPGGNEITRGGSTSYGTGSETESPRNPSSAGSWNSGSSGPGSTGNRNPGSSGTGGTATWKPGSSGPGSTGSWNSGSSGTGSTGNQNPGSPRPGSTGTWNPGSSERGSAGHWTSESSVSGSTGQWHSESGSFRPDSPGSGNARPNNPDWGTFEEVSGNVSPGTRREYHTEKLVTSKGDKELRTGKEKVTSGSTTTTRRSCSKTVTKTVIGPDGHKEVTKEVVTSEDGSDCPEAMDLGTL",35.80,20.46,24.36,211.00,203,116,18.10,9.68,22.17,192.00,101,54,56.26,27.78,12,1.39,12,1.39,–,–,–
Fibrinogen g: γ chain of human fibrinogen; not directly citrullinated (protein) MSWSLHPRNLILYFYALLFLSSTCVAYVATRDNCCILDERFGSYCPTTCGIADFLSTYQTKVDKDLQSLEDILHQVENKTSEVKQLIKAIQLTYNPDESSKPNMIDAATLKSRKMLEEIMKYEASILTHDSSIRYLQEIYNSNNQKIVNLKEKVAQLEAQCQEPCKDTVQIHDITGKDCQDIANKGAKQSGLYFIKPLKANQQFLVYCEIDGSGNGWTVFQKRLDGSVDFKKNWIQYKEGFGHLSPTGTTEFWLGNEKIHLISTQSAIPYALRVELEDWNGRTSTADYAMFKVGPEADKYRLTYAYFAGGDAGDAFDGFDFGDDPSDKFFTSHNGMQFSTWDNDNDKFEGNCAEQDGSGWWMNKCHAGHLNGVYYQGGTYSKASTPNGYDNGIIWATWKTRWYSMKKTTMKIIPFNRLTIGEGQQHHLGGAKQVRPEHPAETEYDSLYPEDDL,33.58,0.00,26.27,122.00,89,0,0.00,0.00,4.86,22.00,0,0,33.58,0.00,0,0.00,0,0.00,–,–,"PAD4 change score (antigen processing change score) (cathepsins B, S, and H; listed as Fibrinogen γ): 0; share of the sequence significantly changed in abundance by citrullination (cathepsins B, S, and H; range over PAD2 and PAD4 conditions): 5–26%"
"Fibrinogen b: β chain of human fibrinogen, RA autoantigen; native or citrullinated by PAD2 or PAD4 (protein) MKRMVSWSFHKLKTMKHLLLLLLCVFLVKSQGVNDNEEGFFSARGHRPLDKKREEAPSLRPAPPPISGGGYRARPAKAAATQKKVERKAPDAGGCLHADPDLGVLCPTGCQLQEALLQQERPIRNSVDELNNNVEAVSQTSSSSFQYMYLLKDLWQKRQKQVKDNENVVNEYSSELEKHQLYIDETVNSNIPTNLRVLRSILENLRSKIQKLESDVSAQMEYCRTPCTVSCNIPVVSGKECEEIIRKGGETSEMYLIQPDSSVKPYRVYCDMNTENGGWTVIQNRQDGSVDFGRKWDPYKQGFGNVATNTDGKNYCGLPGEYWLGNDKISQLTRMGPTELLIEMEDWKGDKVKAHYGGFTVQNEANKYQISVNKYRGTAGNALMDGASQLMGENRTMTIHNGMFFSTYDRDNDGWLTSDPRKQCSKEDGGGWWYNRCHAANPNGRYYWGGQYTWDMAKHGTDDGVVWMNWKGSWYSMRKMSMKIRPFFPQQ",29.03,10.00,31.16,153.00,90,31,7.44,7.12,9.37,46.00,23,22,–,–,5,1.02,4,0.81,39.0323,14.5631,"PAD2 change score (antigen processing change score) (cathepsins B, S, and H; listed as Fibrinogen β): 39.03 and 39.0323; PAD4 change score (antigen processing change score) (cathepsins B, S, and H; listed as Fibrinogen β): 14.56 and 14.5631"
"hnRNP A2/B1: recombinant human hnRNP A2/B1 (RA33), RA autoantigen; native or citrullinated by PAD2 or PAD4 (protein) MEKTLETVPLERKKREKEQFRKLFIGGLSFETTEESLRNYYEQWGKLTDCVVMRDPASKRSRGFGFVTFSSMAEVDAAMAARPHSIDGRVVEPKRAVAREESGKPGAHVTVKKLFVGGIKEDTEEHHLRDYFEEYGKIDTIEIITDRQSGKKRGFGFVTFDDHDPVDKIVLQKYHTINGHNAEVRKALSRQEMQEVQSSRSGRGGNFGFGDSRGGGGNFGPGPGSNFRGGSDGYGSGRGFGDGYNGYGGGPGGGNFGGSPGYGGGRGGYGGGGPGYGNQGGGYGGGYDNYGGGNYGSGNYNDFGNYNQQPSNYGPMKSGNFGGSRNMGGPYGGGNYGPGGSGGSGGYGGRSRY",48.62,10.03,31.16,110.00,194,40,24.61,18.18,24.93,88.00,111,82,58.65 and 58.6466,42.79 and 42.7938,8,2.27,5,1.42,58.6466,42.7938,–
